Data taken from article PMC7819943, “Rice protein-binding microarrays: a tool to detect cis-acting elements near promoter regions in rice”.
The other results are listed elsewhere or left out.

Amino acid sequences for entries named in this document (tags omitted).
UniProt Q0JBA9, entry or part of it: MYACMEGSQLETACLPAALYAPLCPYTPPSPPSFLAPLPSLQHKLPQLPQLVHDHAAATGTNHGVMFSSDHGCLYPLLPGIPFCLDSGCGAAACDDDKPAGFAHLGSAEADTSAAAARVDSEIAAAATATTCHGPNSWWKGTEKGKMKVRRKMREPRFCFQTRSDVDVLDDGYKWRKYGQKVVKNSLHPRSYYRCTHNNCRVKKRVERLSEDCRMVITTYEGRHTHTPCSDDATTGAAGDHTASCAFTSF

target: OsWRKY34 (Oryza sativa, UniProt Q0JBA9 1-250); assay: protein-binding microarray (RPBM); PBS, 2% BSA, 51.3 ng/ul salmon testes DNA, 50 uM zinc acetate, 200 nM TF, 25 C, 1 h; high values mean tight binding; details: protein: recombinant; tags: N-terminal polyhistidine and DsRed monomer fusion (pET32a); label: CyDye5-dUTP incorporated in the synthesized complementary strand; 3' TTTTT single-stranded linker to array surface; dsDNA, one strand shown
How it was run: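 Ni–NTA purification followed expression in E. coli BL21-CodonPlus of transcription factors fused N-terminally to a polyhistidine tag and DsRed. At 200 nM in PBS with 2% BSA, salmon testes DNA and 50 µM zinc acetate, the protein was incubated for 1 h at 25 °C with a custom Agilent array that had been primer-extended with Cy5-dUTP and blocked with 2% BSA. After washing, the array was read on an Axon 4000B scanner. The binding signal is per-feature fluorescence intensity in arbitrary units.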

Sequence | binding signal
GTACATTCTAAGGTCCCCATTGTTTGGCTTATTTCCTAATCGGAGTCACCTAGTGCAG | 10900 fluorescence intensity (a.u.)
CTGTCCAAATCCACCACCAGCTTCTTTCTTTCCATTTTGCCGGAGTCACCTAGTGCAG | 10600 fluorescence intensity (a.u.)
TATGTTCAGGCAATCTCTGAGTCTCGTCAACCTAATTAACCGGAGTCACCTAGTGCAG | 8820 fluorescence intensity (a.u.)
TATCCTCCTACTTCCGTTACCTTTATAGTTCGCGTCCTCCCGGAGTCACCTAGTGCAG | 8720 fluorescence intensity (a.u.)
CTTTTTTTTCTGAAGACTACACACACTAATAAAACACTAACGGAGTCACCTAGTGCAG | 12200 fluorescence intensity (a.u.)
ATTTGTCACTTTTAGGTTCGTCACTTATCCAAATGCTCCTCGGAGTCACCTAGTGCAG | 8860 fluorescence intensity (a.u.)
CCCCTCCGCTAGTAATCACCGACTCTCCCCATTGTGTCACCGGAGTCACCTAGTGCAG | 8190 fluorescence intensity (a.u.)
GATACTTAAAAACCGATGTCTTTTCTTTTCGAACATATCTCGGAGTCACCTAGTGCAG | 10600 fluorescence intensity (a.u.)
CCACCGCTGCCGGCGGCTTCCTCCCCACCGCCGTTGACCTCGGAGTCACCTAGTGCAG | 10400 fluorescence intensity (a.u.)
CGTCAGCATCTTCATCGACATGCCCACCGACGACTCCGGCCGGAGTCACCTAGTGCAG | 10500 fluorescence intensity (a.u.)
AGGGCGCCGTCGTTCGTCATGCTGCTTCCGCCGCATCCTGCGGAGTCACCTAGTGCAG | 9240 fluorescence intensity (a.u.)
AGAGGGGACTGGGGAGGGGAGGGGCGGCGCTCGCTGGCTTCGGAGTCACCTAGTGCAG | 17500 fluorescence intensity (a.u.)
CCGGATCCCGGTCCATCTCCACCGTCCATTCTCTCCCATCCGGAGTCACCTAGTGCAG | 10400 fluorescence intensity (a.u.)
GGAGATGGGGTAGGAAGGGGTATTTTAGTGTAAATACACTCGGAGTCACCTAGTGCAG | 9540 fluorescence intensity (a.u.)
GTTTTCATTCCACTGATCACAGGCTATCTTTCCATGATATCGGAGTCACCTAGTGCAG | 9520 fluorescence intensity (a.u.)
ACTACCTATCTATCCGCTTTCTCCGTACCGAGCAAACGGCCGGAGTCACCTAGTGCAG | 8350 fluorescence intensity (a.u.)
ATCTCTTCTCTCCTCCACCTCACTATTTTAGCTTATGTGACGGAGTCACCTAGTGCAG | 9610 fluorescence intensity (a.u.)
ACTTGCCTTGTTTCTTGTTCTTGTTCATTTCGACCGTTGTCGGAGTCACCTAGTGCAG | 17100 fluorescence intensity (a.u.)
TGTCCTTGCTCTAAGCAATTCGCCGCCTATGAGCTACAATCGGAGTCACCTAGTGCAG | 12100 fluorescence intensity (a.u.)
CCAAGATAATCTCCTCTGCTTCAGAGTTCTTCCTTCTTCTCGGAGTCACCTAGTGCAG | 9130 fluorescence intensity (a.u.)
TGGCCACTTTGCCAGTTCGTCTTTGTTATTTTGAGTTCGGCGGAGTCACCTAGTGCAG | 8300 fluorescence intensity (a.u.)

8 successive records already listed, for reference:
Sequence | binding signal
CCGGATCCCGGTCCATCTCCACCGTCCATTCTCTCCCATCCGGAGTCACCTAGTGCAG | 10400 fluorescence intensity (a.u.)
GGAGATGGGGTAGGAAGGGGTATTTTAGTGTAAATACACTCGGAGTCACCTAGTGCAG | 9540 fluorescence intensity (a.u.)
GTTTTCATTCCACTGATCACAGGCTATCTTTCCATGATATCGGAGTCACCTAGTGCAG | 9520 fluorescence intensity (a.u.)
ACTACCTATCTATCCGCTTTCTCCGTACCGAGCAAACGGCCGGAGTCACCTAGTGCAG | 8350 fluorescence intensity (a.u.)
ATCTCTTCTCTCCTCCACCTCACTATTTTAGCTTATGTGACGGAGTCACCTAGTGCAG | 9610 fluorescence intensity (a.u.)
ACTTGCCTTGTTTCTTGTTCTTGTTCATTTCGACCGTTGTCGGAGTCACCTAGTGCAG | 17100 fluorescence intensity (a.u.)
TGTCCTTGCTCTAAGCAATTCGCCGCCTATGAGCTACAATCGGAGTCACCTAGTGCAG | 12100 fluorescence intensity (a.u.)
CCAAGATAATCTCCTCTGCTTCAGAGTTCTTCCTTCTTCTCGGAGTCACCTAGTGCAG | 9130 fluorescence intensity (a.u.)

The results go on:

Sequence | binding signal
CTCTAAGCATTACCTATATTTTTTATATTTGCACAATATTCGGAGTCACCTAGTGCAG | 8520 fluorescence intensity (a.u.)
AATCTTGGGCGACGGTTTGGTTTGTGGTGTACGTACGTGCCGGAGTCACCTAGTGCAG | 8960 fluorescence intensity (a.u.)
TCTCTCGTGACTACAAATCCATTTCCACAACCCACATTTTCGGAGTCACCTAGTGCAG | 10900 fluorescence intensity (a.u.)
TTGTGGTTTTTCATTGTAGTTTATTTTACGACCTTTTCTTCGGAGTCACCTAGTGCAG | 9050 fluorescence intensity (a.u.)
CGTCCCGCGACCAAATCTAGGTCTCGTCACACATATATCCCGGAGTCACCTAGTGCAG | 10000 fluorescence intensity (a.u.)
GGAGGGTGCTTTGAATATTTGACTGATACAGACCGTGAAACGGAGTCACCTAGTGCAG | 13400 fluorescence intensity (a.u.)
AGTTTTTTTGGTTTATGTGAGGTAGATATATGACTCAACTCGGAGTCACCTAGTGCAG | 10100 fluorescence intensity (a.u.)
TCCATCTGGCGAGCAGAGCAGGGGAGGGGAGGGGATCCTGCGGAGTCACCTAGTGCAG | 10800 fluorescence intensity (a.u.)
TCTATGTTGTGGCTTCTATGTCGATTGTGTTGGGTGTTGACGGAGTCACCTAGTGCAG | 8690 fluorescence intensity (a.u.)
TCCTGCATCCTATACCACTCTATATCATTCCATCATATATCGGAGTCACCTAGTGCAG | 8060 fluorescence intensity (a.u.)
AGCCTCCAAATCAACCCAGCTGTTCCAACACACACATGAACGGAGTCACCTAGTGCAG | 8310 fluorescence intensity (a.u.)
TCCATCTTTCATGACCAATGTTTCGTTAATGGAGACTGACCGGAGTCACCTAGTGCAG | 9300 fluorescence intensity (a.u.)
GTAACTTTAAGGACTCAGACCATATATTTCACTCTTCTTTCGGAGTCACCTAGTGCAG | 9310 fluorescence intensity (a.u.)
CCTTGTCAATTCATTTTTAGGGTTTTATTTCTAATTAATTCGGAGTCACCTAGTGCAG | 9820 fluorescence intensity (a.u.)
GGTGGTTCTGTGAGCCCGCGGGGTTGGGGTTGGGGCCTGGCGGAGTCACCTAGTGCAG | 12900 fluorescence intensity (a.u.)
GGTATCACCGGTTGATATGCCATCCTTATAAGTTTCTCGACGGAGTCACCTAGTGCAG | 8150 fluorescence intensity (a.u.)
GTATCAACGGCGCCACCGTGCCACGTCGACGCCGACGCCGCGGAGTCACCTAGTGCAG | 8650 fluorescence intensity (a.u.)
GCTTTCTCTCTCTCGCCTCGTTAAAATCTCTCTTCCACCCCGGAGTCACCTAGTGCAG | 8180 fluorescence intensity (a.u.)
TGACGACGCCATTGACTTTTGAACACATGTTTGACCATTCCGGAGTCACCTAGTGCAG | 15900 fluorescence intensity (a.u.)
GCAAAAGCCATCACCACCACCACCACCGCCTCTTCTTCCTCGGAGTCACCTAGTGCAG | 9020 fluorescence intensity (a.u.)
TTGCATGTTGAGTTTTGTGTGTTTAATGGGTTGATGTGGCCGGAGTCACCTAGTGCAG | 8620 fluorescence intensity (a.u.)
